Values from PubChem BioAssay AID504804 (Drosophila RNAi Screening Center, 2011).
The screen tested about 19,000 reagents; shown is an unselected part of those that have a named target and a result. In the full data, 47 (0.25%) are marked active. 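Signals are raw, not normalised; exact z-scores behind calls not deposited; actives needed confirmation, so some wells reaching 2 SD are inactive.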 A number with no mark means an inactive call. The numbers tell different reagents against one gene apart. Names joined by + are all predicted targets of the reagent. Reagent sequences are not shown.

Assay: 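Knock-downs shielding fly cells from apoptosis caused by DNA damage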 (primary screen)
Cell system: Drosophila Kc cells
Reagent: long dsRNA against Drosophila genes, 0.5 µg dsRNA per well
Timing: 96 h (48 h knock-down, then 48 h drug)
Conditions: doxorubicin 5 µg/ml for 48 h, added 48 h after dsRNA
Measurement: 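Luminescent ATP counts per replicate, not normalised, reflecting viable cells after 48 h dsRNA knock-down followed by 48 h of 5 µg/ml doxorubicin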
Direction: raw ATP luminescence: higher = more viable cells, protection from doxorubicin
Rule for the call: 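Active when both duplicate wells lie at least 2 SD above the plate mean and protection is confirmed by rescreening and independent dsRNAs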

gene	dsRNA no.	raw ATP luminescence, replicate 1	raw ATP luminescence, replicate 2
CG13071	1	52353	52220
hfw	1	59130	54100
mRpS18B	1	68020	78197
Rab4	1	63430	62677
CG6709 + Hez	1	65063	62247
CG6709 + Hez	2	71843	60690
Ir51b	1	81690	86043
CG31266	1	66120	73950
Ptp99A	1	1.68e5	2.33e5
Ptp99A	2	2.32e5	2.33e5
Ptp99A	3	42980	41490
Ptp99A	4	37550	39500
Ptp99A	5	46820	36740
CG31827 + CG18478	1	87817	87950
Max	1	24873	22417
CG3347	1	36773	33213

Targets above whose gene name starts with C or c (6):
gene	dsRNA no.	raw ATP luminescence, replicate 1	raw ATP luminescence, replicate 2
CG13071	1	52353	52220
CG6709 + Hez	1	65063	62247
CG6709 + Hez	2	71843	60690
CG31266	1	66120	73950
CG31827 + CG18478	1	87817	87950
CG3347	1	36773	33213

The listing continues.
gene	dsRNA no.	raw ATP luminescence, replicate 1	raw ATP luminescence, replicate 2
Lcp9	1	36050	55897
hig	1	46600	55293
fzr	1	46260	62960
Gpdh1	1	1.15e5	73677
CG5062	1	41590	41630
CG33757	1	84140	99853
Mur29B	1	3.43e5	3.00e5
Mur29B	2	39463	89103
CG14105	1	60430	63897
Nlg2	1	37480	42467
CG34300	1	2.22e5	2.27e5
CG15152	1	66720	82833
apt	1	47200	51223
CG14507	1	55100	34480
Ilp8	1	58193	57123
CG14647	1	17673	25180
Mkp3	1	28730	20697
Mkp3	2	49160	47680
